Primary screen of a compound library

Chains of the proteins cited; added tags and fusions are not shown.
UniProt E9BF75, entry or part of it: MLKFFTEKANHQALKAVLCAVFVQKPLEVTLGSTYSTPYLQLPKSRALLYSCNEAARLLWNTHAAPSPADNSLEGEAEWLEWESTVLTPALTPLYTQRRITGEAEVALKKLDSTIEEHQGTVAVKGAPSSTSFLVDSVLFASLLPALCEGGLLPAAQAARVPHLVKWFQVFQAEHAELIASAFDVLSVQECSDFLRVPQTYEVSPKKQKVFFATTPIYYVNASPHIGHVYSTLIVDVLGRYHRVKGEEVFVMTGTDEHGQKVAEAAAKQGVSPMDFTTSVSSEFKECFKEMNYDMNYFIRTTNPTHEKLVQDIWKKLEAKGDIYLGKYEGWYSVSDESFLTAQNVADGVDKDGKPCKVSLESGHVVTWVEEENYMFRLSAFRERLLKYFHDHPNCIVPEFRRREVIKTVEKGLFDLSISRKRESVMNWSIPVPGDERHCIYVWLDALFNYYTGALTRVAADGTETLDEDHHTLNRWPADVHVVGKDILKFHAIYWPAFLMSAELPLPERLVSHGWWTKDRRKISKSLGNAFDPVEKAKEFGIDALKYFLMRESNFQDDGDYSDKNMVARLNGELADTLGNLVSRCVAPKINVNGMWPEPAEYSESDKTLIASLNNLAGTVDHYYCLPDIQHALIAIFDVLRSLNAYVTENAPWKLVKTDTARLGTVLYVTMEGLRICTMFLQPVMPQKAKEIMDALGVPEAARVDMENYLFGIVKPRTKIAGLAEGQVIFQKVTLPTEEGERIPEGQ

Data taken from ChEMBL document CHEMBL3988442, “University of Dundee, Small-Polar-MMV Screening Library” (2021).

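Methionyl-tRNA synthetase (putative), Leishmania donovani (UniProt E9BF75). Primary screen of methionyl-tRNA synthetase; the read-out is not stated. The test concentration is not given. Values are per cent inhibition. Size under these conditions: about 68,000 compounds, about 24 of them at 50% or above in at least one test.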

All values are in %. How 0% and 100% were set is not recorded. Most values in the screen are low, and negative values occur. Compounds were drawn at random from those tested, without regard to their results.

N#Cc1cccnc1N1CCCN(C(=O)CCc2cccs2)CC1 read 12.32%. For O=C1N(CCCc2ccccc2)CCCC1(O)CNCc1ccccc1 (stereo unspecified) the result was 13.75%. Result for c1cc(CNCC2CNc3ccnn3C2)cc(Cn2cccn2)c1 (stereo unspecified) was 13.86%. With O=C(c1c(F)cccc1F)N1CCOCC1 the screen gave -7.286%.

CCSc1ncc(CN2CCN(c3ncc(C)c(N)n3)CC2)cn1 read 14.43%. With CC(C)OCc1ncn2c1CN(Cc1cccs1)CCC2 the screen gave 5.724%. With CCN(Cc1cccc(NC(=O)COCCOC)c1)C(C)=O the screen gave 8.741%. For O=C(C1CC=CC1)N1CCC2(CC1)CNCCO2 the result was 7.246%.

With CNC(=O)Cc1ccccc1NC(=O)C1CCCC1 the screen gave 4.61%. For Cc1ccc(S(=O)(=O)NCC2COCc3c(C)nnn3C2)cc1F (stereo unspecified) the result was 5.882%. For Cc1noc(C)c1CN1CCO[C@H]2CN(Cc3cccnc3)C[C@H]21 the result was 8.125%. Cc1cccc(NC(=O)N2CCC3(CCC(C(=O)N(C)C)O3)CC2)c1 (stereo unspecified) gave 7.625%.

Result for Fc1ccccc1CC1CCN(Cc2ccccn2)CC1 was 5.955%. CCCOc1cccc(CNC(=O)CN2CCN(C)CC2C)c1 (stereo unspecified) gave 13.65%. With O=C(NC1CC1)C1CNCCN1C(=O)CCOc1ccccc1 (stereo unspecified) the screen gave 14.85%. With CN(C)C1(CNC(=O)C/C=C/c2ccc(F)cc2)CCOCC1 the screen gave 7.542%.

Cc1cccc(OCCNC(=O)Cn2ccc(C)cc2=O)c1 read -9.309%. With CCN1CCNC(=O)C12CCN(S(=O)(=O)c1ccccc1)CC2 the screen gave 12.78%. Fc1ccc(-c2nc(CN3CCCCC3Cn3cncn3)co2)cc1 (stereo unspecified) read 15.66%. Result for CC(=O)N1CCC(N2C[C@@H](F)[C@@H](OCc3nc4ncccc4[nH]3)C2)CC1 was 12.54%.

CCCn1cc(NC2CCSCC2)cn1 gave 5.222%. For Cc1cncc(C(=O)N2CCc3ncc(Cn4cccn4)n3CC2)c1 the result was 3.562%. Cc1cnc(N2CCc3onc(COc4cccnc4)c3C2)nc1 gave 18.6%. O=C(c1cnc2[nH]c(=O)[nH]c(=O)c2c1)N1CCCC1C1CCCCC1 (stereo unspecified) gave 14.76%.

For CC(Nc1cccc(F)c1C#N)c1cccc(S(N)(=O)=O)c1 (stereo unspecified) the result was 10.61%. Result for CN(C)S(=O)(=O)N1CCOCC1CC(=O)NCCOc1ccccc1 (stereo unspecified) was 17.35%. For O=C(c1ccc(-n2ccnc2)nn1)N1CCCCC1Cn1cccn1 (stereo unspecified) the result was 9.235%. COc1ccc(C(O)CNC(=O)NCCc2csc(C)n2)cc1 (stereo unspecified) gave 19.55%.

Cc1nc(CN(C)C2CCN(CC3CCCCC3)C2)no1 (stereo unspecified) gave 12.38%. CC(C)(C)n1ncc2c(=O)[nH]c(N3CCN(CCO)CC3)nc21 gave 13.4%. With CCn1cc(CNC2CCN(c3cccc(Cl)c3)C2)cn1 (stereo unspecified) the screen gave 9.524%. For Cc1cc(C2CN(CC(=O)NCc3ccco3)CCO2)ccc1F (stereo unspecified) the result was 10.56%.

With Cc1cc(=O)[nH]c(NCCNC(=O)c2ccccc2N2CCCC2)n1 the screen gave 3.621%. For Cn1cccc1C(=O)N1CCC2(CC1)CN(c1ccccc1)C(=O)CO2 the result was -4.975%. With Cc1cc(C)n(CC2CCCN2C(=O)c2cccc(C#N)c2)n1 (stereo unspecified) the screen gave 14.29%. Result for Cn1cccc(NC(=O)NCc2cccc(CO)c2)c1=O was 10.43%.

Result for COc1ccc2c(c1)OCC(CNC(=O)CCc1c(C)n[nH]c1C)C2 (stereo unspecified) was 16.91%. Cc1cccc(NC(=O)[C@@H]2CCCN2CC(=O)N2CCCCCC2)n1 gave 14.63%. With N#Cc1cccc(NC2CC(=O)N(CCc3ccc(F)cc3)C2)n1 (stereo unspecified) the screen gave 2.135%. CC(=O)N1CCC(Oc2cccc(C#N)c2)CC1 gave 7.853%.

With Cc1cc(CN(C)CCC(O)c2ccccc2)no1 (stereo unspecified) the screen gave 6.944%. For O=C(c1ccncc1)N1CC[C@@H](O)[C@@H](O)[C@H](N2CCC(F)(F)CC2)C1 the result was 5.085%. c1cnn(CCCO[C@@H]2CC[C@H]3[C@H]2OCCN3CC2CCOCC2)c1 read 15.62%. O=C(C1CCOC1)N1C[C@H]2CN(Cc3ccncc3)C(=O)[C@H]2C1 (stereo partly specified) gave 8.211%.

For CC1CCN(C(=O)Cn2nc(Br)nc2Br)CC1 the result was 18.42%. For O=C(Nc1ccnc(OC2CCOC2)c1)c1cccs1 (stereo unspecified) the result was 14.67%. Result for O=C(O)c1ccc(N2CCC(Oc3cccc(F)c3)CC2)nc1 was 1.423%. For CSCc1ccc(N2CCN(c3ccc(Cl)cn3)CC2)nc1 the result was 10.41%.

CN(C)CCNC(=O)Cc1cccc(I)c1 gave -0.2793%. CO[C@@H](C(=O)NC1CCOCC1)c1ccccc1 read 1.985%. For COc1ccc(C(=O)N2C[C@H]3CC[C@@H]2CN(C)C3)cc1Cl the result was -3.593%.

6 of the entries, repeated:

SMILES,Inhibition
O=C1N(CCCc2ccccc2)CCCC1(O)CNCc1ccccc1 (stereo unspecified),13.75%
COc1ccc2c(c1)OCC(CNC(=O)CCc1c(C)n[nH]c1C)C2 (stereo unspecified),16.91%
COc1ccc(C(=O)N2C[C@H]3CC[C@@H]2CN(C)C3)cc1Cl,-3.593%
O=C(C1CCOC1)N1C[C@H]2CN(Cc3ccncc3)C(=O)[C@H]2C1 (stereo partly specified),8.211%
CN(C)S(=O)(=O)N1CCOCC1CC(=O)NCCOc1ccccc1 (stereo unspecified),17.35%
Cc1cc(=O)[nH]c(NCCNC(=O)c2ccccc2N2CCCC2)n1,3.621%